Experimental data: PubChem BioAssay AID686943 (Drosophila RNAi Screening Center, 2013)

- Screen: 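Search across the genome for regulators of signalling from receptor tyrosine kinase to ERK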 (primary screen)
- System: Drosophila S2R+ haemocyte-like cells expressing YFP-tagged ERK (Rolled)
- Knock-down reagent: long dsRNA against Drosophila genes
- Treatment: insulin stimulation versus unstimulated cells; dose and duration not given
- Measurement: 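Per-plate z-scores of phospho-ERK immunostaining normalised to YFP-tagged ERK, measured with and without insulin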
- Direction: replicate 1, z-score of dpERK with insulin: higher = more active ERK per ERK-YFP after insulin
In all, the deposit lists about 23,000 reagents; shown is a random part of those that have a named target and a result. 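Extra replicates exist only for a retested subset of genes; insulin dose and duration not given; both raised and lowered dpERK matter.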 Further read-outs or replicates are left out here. Not stated in the record: the amount of reagent, the time to read-out.

replicate 1, z-score of dpERK with insulin, by gene knocked down and reagent
Socs36E: DRSC02455 -2.39
Diedel: DRSC14317 -0.61
mthl1: DRSC19905 -0.11
CG12963: DRSC05555 1.1; DRSC06265 0.69
CG42710: DRSC01034 -0.4
tld: DRSC17084 0.43
CG15107: DRSC06534 0.89
Aos1: DRSC14113 -0.06
CG30268: DRSC21983 -0.44
swaPsi: DRSC21685 0.82
Idua: DRSC02941 -0.45
Efhc1.1: DRSC20135 -1.14
TrpRS: DRSC14097 -0.65
CG12118: DRSC17813 0.49
RhoGAP16F: DRSC20025 -0.58
CG12112: DRSC17809 0.29
CG12713: DRSC09900 0.17
Ten-m: DRSC11664 -0.1; DRSC11882 0.01
Grip75: DRSC03337 -0.32
RpL37-2: DRSC04584 0.59
Hr78: DRSC11866 -0.3

3 entries from above, reformatted:
CG12112 [DRSC17809] → replicate 1, z-score of dpERK with insulin = 0.29
CG12713 [DRSC09900] → replicate 1, z-score of dpERK with insulin = 0.17
Ten-m [DRSC11664] → replicate 1, z-score of dpERK with insulin = -0.1
